This is an account of results in PubChem BioAssay AID1347426 (Functional Genomics Laboratory (NCATS/FGL), 2020).

Screen size: about 31,000 sequences; about 1,400 (4.5%) were called active.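 How the source made its calls: active means median seed-adjusted z-score above 1 or below -1; inactive means the rest.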 This is one part of the list.

The test in a line: Novel Modifiers of Survival Motor Neuron (SMN) Protein: Gene Identification via Genome-wide siRNA Screen.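 Further: luminescence tracks full-length SMN protein made from the SMN2 reporter.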 Conditions: HEK293T SMN2-luciferase reporter, siRNA knockdown, 72 h; actives lie on both sides. The gist of the method:
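Each of three siRNAs per gene is reverse-transfected (1 pmol) into reporter HEK293T cells whose luciferase output tracks SMN protein level. After 72 h culture, ONE-Glo luminescence is control-normalized, log10-transformed and MAD-standardized; Common Seed Analysis deprioritizes seed-driven hits.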
(In a reporter assay the amount or activity of a reporter protein is the signal.)
UAAAAUCUAGGGAUCCAAUTT against POLR2K: the median seed-adjusted z-score is active: -3.72.
The figure for GAACGGUCCAGUCACCAAATT against TRIM24 is inactive: -0.22; for CCAUGUACUGGGUAUAGAATT against ZFP112 it is inactive: -0.449; for CCUCUAGAAGGAUCUAAUATT against MMP19 it is inactive: 0.43.
The same measure for GGAACGAGGUAACAGUUGATT against CDC16: inactive: 0.106; for GGUCAACAAUGCUUAUGCATT against DHRS1: inactive: 0; for GCCUCAACCCUGUGCUGUATT against RXFP4: inactive: -0.315.
The same measure for CACUGGAACUCAUAUUGUATT against NGF: inactive: -0.325.
On to AAGUCGAAGAGAUACCAUUTT against ZNF768, for which the median seed-adjusted z-score is inactive: 0.169.
For GACCUGUCCUAGUAACAAATT against RNASE2, the median seed-adjusted z-score was inactive: 0.283.
As to CGAAGCUACUUGACGAAAATT against IL16, the median seed-adjusted z-score was inactive: -0.471.
The figure for GGAUGGAAAUGUAGACAUUTT against CAPN9 is inactive: 0.417; for ACAUUAGCAUUUUCGUUGATT against SSX6 it is inactive: -0.493.
On to GGAAGUUUCUAGAGGAACATT against TRIM10, for which the median seed-adjusted z-score was inactive: -0.0934.
The figure for GGUCGUAGAUUUAAAGGAATT against SSB is inactive: 0; for CCUGGAGUGUGGUGCUUAATT against FFAR1 it is inactive: 0.248.
The figure for CAAUAUCUGCCCUAACUCATT against DUSP13 is inactive: -0.772; for GGAUGAUAUGUAGCUCCCATT against SIGIRR it is inactive: 0.0269; for GAAACUCCCUUAUAGUACATT against TBX3 it is inactive: 0.
The figure for CCAAUGACCAAGGAGCAUATT against RANBP6 is inactive: -0.696; for CAUCGCCUAUAUGAAAUAUTT against PLA2G10 it is active: 1.07.
On to GAAGGGAGGGUGUACCAUUTT against ABL1, for which the median seed-adjusted z-score was inactive: -0.181.
As to CAUGUACUCUGGGACCUUUTT against SLC25A20, the median seed-adjusted z-score was inactive: -0.183.
The same measure for CUUUUGCCUGUAGCCCAUATT against GCS1: inactive: 0.819; for GGAUCCUCCCAGUUUAACATT against CHSY1: inactive: 0.247; for GAGUAUGCCGUGAAGAUCATT against RPS6KA2: inactive: 0.139.
The same measure for GGGUGAUGGUUGCAGUUUUTT against ZDHHC20: inactive: -0.936; for GCGGUACUUUGAGCAGUUATT against P4HA2: inactive: 0.
The same measure for GACCCACAUUGAAUCUAGATT against PAH: inactive: 0.487; for GCAGGUACAUCUCGCCUGATT against ENO1: inactive: 0.0766; for CAACUGCUCGGAUGCCCAUTT against SLC6A3: inactive: 0.457.
As for GUGUAUUCAUGGAUGCAGATT against GYG1, the median seed-adjusted z-score is inactive: 0.119.
The same measure for AGAUCAAGGACAUGGAGAATT against EFHD2: inactive: 0.874; for GAGUGUUCCUUUGCAUUGATT against ARFGAP3: inactive: 0.00412.
The same measure for GCAAUUAACUCCACACGAATT against PXDNL: inactive: -0.186; for GACCGACAUUUGUGAAGAATT against ZNF547: inactive: 0.099.
The figure for CUACGACGACGAGAAGGAATT against SERPINH1 is inactive: 0.186.
With UCAGCCUCACGGAAACUCATT against EMX2, the median seed-adjusted z-score was inactive: 0.324.
For CACUCACCUUUUUCAAGAATT against SPSB3, the median seed-adjusted z-score is inactive: 0.457.
The same measure for GCGAGAAUCUGUUAGUAAATT against PANK3: inactive: -0.185.
For the sequence GUGUUGGUAUUAUAUGAUATT against SLC25A31, the median seed-adjusted z-score was inactive: -0.615.
The same measure for GGCUCAAGGAAACCCAAUATT against AFF4: inactive: -0.0637; for GGAGAGCUACGGUUACUCATT against GABRD: inactive: 0.428; for GGAGCUACCUGGAAAAAGUTT against PSMD7: inactive: 0.0973.
The same measure for GGAAUACCAUGAGCUGUUATT against OSBP: inactive: 0.256; for GGUCCGCAAAGGCUUCUGATT against VWA1: inactive: 0.289.
The figure for GGAGAACCAUUGUCAUAUATT against TFRC is inactive: 0.019; for GAGCCUAAAUUCCAUUGUUTT against TYW1 it is inactive: 0.201.
Consider CGAUCCUACCUACACCAGUTT against EPHB3, for which the median seed-adjusted z-score is inactive: -0.407.
The figure for GGAGUACUCCUAUGACAUUTT against FGFR2 is inactive: 0.158.
For the sequence AGAGCAAGCGGAAAAGGGATT against HAND1, the median seed-adjusted z-score was inactive: 0.161.
In the case of CCUGAUGAGCCGUACAUUATT against CLDN16, the median seed-adjusted z-score was inactive: -0.868.
On to GCAUGACCCUCGUCACAUATT against THBS1, for which the median seed-adjusted z-score is inactive: -0.847.
The figure for CACUAUCAACAAUAGCCUATT against FOXM1 is inactive: -0.399; for GCUAAUGCAGAGUCAAGUATT against TRIM14 it is inactive: -0.0636; for CUAGUGAGCUCAUCGAAAATT against MYD88 it is inactive: -0.365.
On to AGAUAGAGGUCACCAGUGATT against PPP1R3F, for which the median seed-adjusted z-score was inactive: 0.781.
The figure for ACACUGUACUCUCCAAUAATT against PLA2G1B is inactive: -0.411; for GGCUGUAUCACAUCGGUUATT against CCR2 it is inactive: -0.00107; for UCAGGGCUCUGUUGCAAGATT against TESK1 it is inactive: 0.384.
For GACCCUUGGAAAUUGCUGATT against RNF26, the median seed-adjusted z-score is inactive: 0.359.
The figure for CUCGGGUCCUGAAAUCUUATT against MLC1 is inactive: -0.284; for AGACGGCGGUGGAACCAAATT against IL2RB it is inactive: 0.333; for GACCCUAGCUUUAAGAGAATT against TGFA it is inactive: -0.22.
For GGUCAUCCGCAAACGGAAATT against CARD9, the median seed-adjusted z-score was inactive: -0.325.
The same measure for GCAUUGUCUGUGAACAAGATT against TRIP4: inactive: -0.0385; for CAGGUAUAUCAAUUUUUCATT against PRICKLE3: inactive: 0.0332.
The figure for CAUAUGCCCUCUUCAAUCATT against ZBTB33 is inactive: 0.164.
